Measured values from patent US9888688B2, “Tetrazolinone compounds and applications thereof” (Sumitomo Chemical Company, Limited, priority 2013, dated 2018).
Some results were stated once for a whole list of compounds, not compound by compound.

What was measured:
Type in all cases: in vivo
[1] = test system: barley net blotch fungus (Pyrenophora teres); assay: Barley net blotch control test, foliar spray on barley (Test Examples 4, 16, 17, 18); details: barley NISHINOHOSHI, inoculated after 2 days
[2] = test system: kidney bean stem rot fungus (Sclerotinia sclerotiorum); assay: Kidney bean stem rot control test, foliar spray on kidney bean (Test Examples 5, 22, 23); details: kidney bean NAGAUZURA NATANE, four days after inoculation
[3] = test system: wheat leaf blotch fungus (Septoria tritici); assay: Wheat leaf blotch control test, spray before inoculation (Test Examples 6, 9, 10, Comparative Test Example); details: wheat APOGEE, inoculated after 4 days
[4] = test system: wheat leaf blotch fungus (Septoria tritici); assay: Wheat leaf blotch control test, spray after inoculation (Test Example 8); details: 200 ppm foliar spray 3 days after inoculation, wheat APOGEE
[5] = test system: soybean rust fungus (Phakopsora pachyrhizi); assay: Soybean rust control test, foliar spray on soybean (Test Example 19); details: 200 ppm foliar spray, soybean KUROSENGOKU, inoculated after 2 days
[6] = test system: barley scald fungus (Rhynchosporium secalis); assay: Barley scald control test, foliar spray on barley (Test Examples 20, 21); details: 200 ppm foliar spray, barley NISHINOHOSHI, inoculated after 2 days
[7] = test system: cucumber corynespora leaf spot fungus (Corynespora cassicola); assay: Cucumber corynespora leaf spot control test (Test Examples 26, 27); details: cucumber SAGAMI HANJIRO, inoculated after one day, 7 days
[8] = test system: cucumber anthracnose fungus (Colletotrichum lagenarium); assay: Cucumber anthracnose control test (Test Examples 28, 29); details: cucumber SAGAMI HANJIRO, inoculated after one day

Measured: area of lesion spots relative to that on an untreated plant

Cc1cc(-c2cccc(Cl)n2)ccc1OCc1c(C2CC2)cccc1-n1nnn(C)c1=O [Present Compound 40]
≤ 30%: [1]; 200 ppm foliar spray | [1]; 500 ppm foliar spray | [2]; 200 ppm foliar spray | [2]; 500 ppm foliar spray | [3]; 200 ppm foliar spray | [3]; 500 ppm foliar spray | [4] | [5] | [6] | [7]; 50 ppm foliar spray | [8]; 50 ppm foliar spray

Cc1cc(-c2ccc(F)cn2)c(C)cc1OCc1ccccc1-n1nnn(C)c1=O [Present Compound 216]
≤ 30%: [1]; 200 ppm foliar spray | [1]; 500 ppm foliar spray | [2]; 200 ppm foliar spray | [2]; 500 ppm foliar spray | [3]; 200 ppm foliar spray | [3]; 500 ppm foliar spray | [4] | [5] | [6] | [7]; 200 ppm foliar spray | [8]; 200 ppm foliar spray

Cc1ccc(C)c(-c2ccc(OCc3c(C)cccc3-n3nnn(C)c3=O)c(C)c2)n1 [Present Compound 147]
≤ 30%: [1]; 200 ppm foliar spray | [1]; 500 ppm foliar spray | [2]; 500 ppm foliar spray | [3]; 200 ppm foliar spray | [3]; 500 ppm foliar spray | [4] | [5] | [6] | [7]; 200 ppm foliar spray | [8]; 200 ppm foliar spray

Cc1cc(-c2ncccn2)ccc1OCc1ccccc1-n1nnn(C)c1=O [Present Compound 87]
≤ 30%: [1]; 200 ppm foliar spray | [2]; 200 ppm foliar spray | [3]; 200 ppm foliar spray | [4] | [5] | [6] | [7]; 200 ppm foliar spray | [8]; 50 ppm foliar spray

CCc1cccc(-n2nnn(C)c2=O)c1COc1ccc(-c2ccccn2)cc1C [Present Compound 7]
≤ 30%: [1]; 200 ppm foliar spray | [1]; 500 ppm foliar spray | [2]; 200 ppm foliar spray | [2]; 500 ppm foliar spray | [3]; 200 ppm foliar spray | [3]; 500 ppm foliar spray | [4] | [5] | [6] | [7]; 50 ppm foliar spray | [8]; 50 ppm foliar spray

Cc1ccnc(-c2ccc(OCc3c(C)cccc3-n3nnn(C)c3=O)c(C)c2)c1 [Present Compound 20]
≤ 30%: [1]; 200 ppm foliar spray | [1]; 500 ppm foliar spray | [2]; 200 ppm foliar spray | [2]; 500 ppm foliar spray | [3]; 200 ppm foliar spray | [3]; 500 ppm foliar spray | [4] | [5] | [6] | [7]; 200 ppm foliar spray | [8]; 50 ppm foliar spray

CCc1cccc(-n2nnn(C)c2=O)c1COc1ccc(-c2nccc(C)n2)cc1C [Present Compound 93]
≤ 30%: [1]; 200 ppm foliar spray | [1]; 500 ppm foliar spray | [2]; 200 ppm foliar spray | [2]; 500 ppm foliar spray | [3]; 200 ppm foliar spray | [3]; 500 ppm foliar spray | [4] | [5] | [6] | [7]; 50 ppm foliar spray | [8]; 50 ppm foliar spray

COc1ccc(-c2cc(C)c(OCc3c(C)cccc3-n3nnn(C)c3=O)cc2C)nc1 [Present Compound 186]
≤ 30%: [1]; 200 ppm foliar spray | [1]; 500 ppm foliar spray | [2]; 200 ppm foliar spray | [2]; 500 ppm foliar spray | [3]; 200 ppm foliar spray | [3]; 500 ppm foliar spray | [4] | [5] | [6] | [7]; 200 ppm foliar spray | [8]; 200 ppm foliar spray

Cc1ccnc(-c2ccc(OCc3c(C4CC4)cccc3-n3nnn(C)c3=O)c(C)c2)c1 [Present Compound 22]
≤ 30%: [1]; 200 ppm foliar spray | [1]; 500 ppm foliar spray | [2]; 200 ppm foliar spray | [2]; 500 ppm foliar spray | [3]; 200 ppm foliar spray | [3]; 500 ppm foliar spray | [4] | [5] | [6] | [7]; 200 ppm foliar spray | [8]; 50 ppm foliar spray

Cc1cc(-c2ccccn2)c(C)cc1OCc1c(C2CC2)cccc1-n1nnn(C)c1=O [Present Compound 222]
≤ 30%: [1]; 200 ppm foliar spray | [1]; 500 ppm foliar spray | [2]; 200 ppm foliar spray | [2]; 500 ppm foliar spray | [3]; 200 ppm foliar spray | [3]; 500 ppm foliar spray | [4] | [5] | [6] | [7]; 200 ppm foliar spray | [8]; 200 ppm foliar spray

CCc1cccc(-c2cc(C)c(OCc3c(C)cccc3-n3nnn(C)c3=O)cc2C)n1 [Present Compound 204]
≤ 30%: [1]; 200 ppm foliar spray | [1]; 500 ppm foliar spray | [2]; 200 ppm foliar spray | [2]; 500 ppm foliar spray | [3]; 200 ppm foliar spray | [3]; 500 ppm foliar spray | [4] | [5] | [6] | [7]; 200 ppm foliar spray | [8]; 200 ppm foliar spray

CCc1ccnc(-c2ccc(OCc3c(CC)cccc3-n3nnn(C)c3=O)c(C)c2)n1 [Present Compound 142]
≤ 30%: [1]; 200 ppm foliar spray | [1]; 500 ppm foliar spray | [2]; 200 ppm foliar spray | [2]; 500 ppm foliar spray | [3]; 200 ppm foliar spray | [3]; 500 ppm foliar spray | [4] | [5] | [6] | [7]; 200 ppm foliar spray | [8]; 50 ppm foliar spray

Cc1cc(-c2ccccn2)c(C)cc1OCc1c(Cl)cccc1-n1nnn(C)c1=O [Present Compound 177]
≤ 30%: [1]; 200 ppm foliar spray | [2]; 200 ppm foliar spray | [3]; 200 ppm foliar spray | [4] | [5] | [6] | [7]; 200 ppm foliar spray | [8]; 200 ppm foliar spray

Cc1cc(-c2cccc(Cl)n2)c(C)cc1OCc1c(C)cccc1-n1nnn(C)c1=O [Present Compound 158]
≤ 30%: [1]; 200 ppm foliar spray | [1]; 500 ppm foliar spray | [2]; 200 ppm foliar spray | [2]; 500 ppm foliar spray | [3]; 200 ppm foliar spray | [3]; 500 ppm foliar spray | [4] | [5] | [6] | [7]; 200 ppm foliar spray | [8]; 200 ppm foliar spray
